Screening data, single-dose tests

Results are given as percent effect.
How 0% and 100% were set is not recorded. Most values in the screen are low, and negative values occur.
The compounds are a random part of those screened.

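Whole-parasite assay of Trypanosoma brucei over 72 hours; the read-out is not stated. Compounds at 10 µM. Higher reads as stronger inhibition (inferred: compounds with an IC50 in retests scored well above the rest). Values scatter widely below zero; nearly all retest evidence comes from the higher of the two concentrations used. Of about 2,700 compounds tested this way, about 14 (0.51%) reached 50% or more in at least one test.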

| # | structure | Percent Effect |
|---|---|---|
| 1 | `COc1c(C2CCCN2C(=O)c2cnccn2)c(C)nn1C` (stereo not given) | -45.01 |
| 2 | `NC(=O)C1CCN(C(=O)NCc2csc(Br)c2)CC1` | -65.84 |
| 3 | `COc1c(C)cnc(CN2CCC(N(C)C(=O)C3CC3)CC2)c1C` | -44.27 |
| 4 | `CC(C)=CCN1CCN(Cc2nccn2C)C(C)C1` (stereo not given) | -39.11 |
| 5 | `CNC(=O)CCS(=O)(=O)Cc1cc(Cl)c2c(c1)OCCO2` | -7.053 |
| 6 | `Cc1nn(C)c(N(C)C)c1CNC(C)COc1ccc(F)cc1F` (stereo not given) | -39.1 |
| 7 | `c1cn(-c2ccc(CN3CCOC(Cn4cncn4)C3)cc2)cn1` (stereo not given) | 4.318 |
| 8 | `CCCNC(=O)CCOc1cccc(F)c1` | -7.487 |
| 9 | `Cc1ccc(-c2nc(CN3CCCC3Cn3cncn3)cs2)o1` (stereo not given) | -57.95 |
| 10 | `Cc1noc(C2CCN(C(=O)Nc3ccc(N(C)C)nc3)CC2)n1` | -15.83 |
| 11 | `Cc1cc(OCC(=O)N2CCCC(c3noc(C(C)C)n3)C2)no1` (stereo not given) | -43.48 |
| 12 | `Cc1ncc2c(n1)CN(Cc1nc(Cc3ccccc3)no1)CC2` | -61.73 |
| 13 | `CCOCC(O)CN1CCN(C(=O)c2cccc(OC)c2)CC1` (stereo not given) | -43.47 |
| 14 | `CCOCCN1CCN(C(C)c2nc(C3CC3)no2)CC1` (stereo not given) | -102.4 |
| 15 | `c1cnn(CC2CN(CC3CCCCC3)CCO2)c1` (stereo not given) | -45.56 |
| 16 | `COCCOc1ncccc1C(=O)N1CCCC(n2ccnc2C)C1` (stereo not given) | -49.41 |
| 17 | `O=C(CCCN1C(=O)CCC1=O)NCC1(c2ccccc2)CCC1` | -12.34 |
| 18 | `COc1cccc(CC(=O)N2CCCC(n3nc(C)cc3C)C2)c1` (stereo not given) | -5.24 |
| 19 | `CN(Cc1ccc(N(C)C)cc1)C(=O)c1cc2c([nH]c1=O)CCCC2=O` | -59.61 |
| 20 | `Cn1ccc(CN2CCC(CC(=O)N3CCCC3)CC2)cc1=O` | -42.82 |
| 21 | `O=C(Cc1ccccc1Cl)N1CCN(CC(O)COCCO)CC1` (stereo not given) | -12.09 |
| 22 | `COc1ccsc1C(=O)N1CCCC(n2nc(C)cc2C)C1` (stereo not given) | 41.41 |
| 23 | `Cc1nn(C)c(N(C)C)c1CNC(C)COc1ccccc1F` (stereo not given) | -18.23 |
| 24 | `COc1cc(S(=O)(=O)N2CCc3cc(Br)ccc32)cc(C(=O)O)c1OC` | -10.28 |
| 25 | `COc1cccc(CNCc2c(C(C)C)nn(C)c2N(C)C)c1` | -22.74 |
| 26 | `CN1CCC/C1=N\S(=O)(=O)c1ccc(NC(=O)c2ccco2)cc1` | -35.5 |
| 27 | `CCCc1nc(CNCC2CCCN2c2cccnn2)no1` (stereo not given) | -34.96 |
| 28 | `Cc1oc(C)c(C(=O)NCc2cccnc2)c1C` | -5.114 |
| 29 | `COC(=O)C(NC(=O)C1CCC1)c1cc(F)ccc1F` (stereo not given) | -33.51 |
| 30 | `CC1CN(C(=O)CN(Cc2ccco2)Cc2cccs2)CCO1` (stereo not given) | -49.74 |
| 31 | `Cc1ccc(-c2nnc(CN3CCCCC3Cn3cncn3)o2)cc1` (stereo not given) | -53.84 |
| 32 | `CN(Cc1ccsc1)C(=O)CN1CCOC(Cn2cncn2)C1` (stereo not given) | -35.22 |
| 33 | `O=C(Nc1cc(F)ccc1OCC1CCCO1)NC1CC1` (stereo not given) | -39.18 |
| 34 | `O=C(CN(Cc1ccco1)C1CC1)N1CCCCCC1` | -42.27 |
| 35 | `COc1c(CNCc2ccc(C(=O)N3CCCC3)cc2)c(C)nn1C.Cl` | -49.81 |
| 36 | `Cc1cccc(OCCCN2CCC(N(C)Cc3noc(C)n3)C2)c1` (stereo not given) | -33.46 |
| 37 | `Cc1nn(C)c(C)c1CCC(=O)N1CCCC(n2cncn2)C1` (stereo not given) | -50.61 |
| 38 | `CCc1c(C(=O)N2CCNC(=O)C2)cnn1C(C)(C)C` | -31.29 |
| 39 | `Cc1nc(C2CCCN2Cc2cc(=O)n(C)c(=O)n2C)no1` (stereo not given) | -53.75 |
| 40 | `CCCc1nc(C)c(C(=O)NCCN2CCCCC2)s1` | -40.88 |
| 41 | `CC(C)c1nc(C2CCCN2CC(=O)Nc2cccnc2)no1` (stereo not given) | -35.36 |
| 42 | `O=C(c1ccc(Cn2ccccc2=O)o1)N1CCC2(CC1)OCCO2` | -26.86 |
| 43 | `Cc1ccc(-c2nc(CN3CCN(CCO)CC3)co2)cc1` | -29.86 |
| 44 | `CC(Cn1cccn1)NC(=O)NCc1cccnc1OC(C)C` (stereo not given) | -11.51 |
| 45 | `Cn1ccnc1CN1CCCN(C(=O)COC2CCCC2)CC1` | 4.062 |
| 46 | `Cc1cnn(CCNCc2ccccc2OCc2ccncc2)c1` | -28.85 |
| 47 | `CN(Cc1cnn(C)c1)CC1CCCN1c1cccnn1` (stereo not given) | -44.2 |
| 48 | `CCOc1ncccc1NC(=O)N1CCN(Cc2ccncc2)CC1` | -59.69 |
| 49 | `CC(=O)Nc1nc(C(=O)NCc2ccc(N3CCCC3)nc2)cs1` | 11.5 |
| 50 | `CCc1nc(C2CCCN2Cc2nnc(C3CC3)o2)no1` (stereo not given) | -96.14 |
| 51 | `CCN(CC)S(=O)(=O)c1cccc(C(=O)N(C)Cc2ccsc2)c1` | -46.81 |
| 52 | `Cc1cnn(CC2CCCN2CC(=O)Nc2cc(C)no2)c1` (stereo not given) | -26.52 |

Once more, the final 5:

structure	Percent Effect
CCOc1ncccc1NC(=O)N1CCN(Cc2ccncc2)CC1	-59.69
CC(=O)Nc1nc(C(=O)NCc2ccc(N3CCCC3)nc2)cs1	11.5
CCc1nc(C2CCCN2Cc2nnc(C3CC3)o2)no1 (stereo not given)	-96.14
CCN(CC)S(=O)(=O)c1cccc(C(=O)N(C)Cc2ccsc2)c1	-46.81
Cc1cnn(CC2CCCN2CC(=O)Nc2cc(C)no2)c1 (stereo not given)	-26.52

Data taken from ChEMBL document CHEMBL3988442, “University of Dundee, Small-Polar-MMV Screening Library” (2021).